Reference: US20260062441A1, “TUMOR-SEEKING GLUCOSE-DENDRONS FOR THE DELIVERY OF CHEMOTHERAPEUTICS AND IMAGING AGENT TO CANCER CELLS” (THE BOARD OF TRUSTEES OF THE UNIVERSITY OF ILLINOIS, priority 2022, published 2026)

Tests used:
[1] = PA imaging unmixing experiment in tissue-mimicking phantoms; conditions: water with hemoglobin 10 mg/mL
[2] = tested on: A549 cells; assay: Colocalization studies with organelle trackers; type: cell-based, human

SMILES	PA intensity after spectral unmixing, higher than AB-OMe2 ([1]; same dye concentration (30 μM))	Pearson coefficient, colocalization with DAPI [2]	Pearson coefficient, colocalization with Lysotracker Green [2]	Pearson coefficient, colocalization with MitoTracker Green [2]	PA signal after unmixing ([1]; 30 μM)
CO[B-]1(OC)n2c(-c3ccc(OCc4cn(C(COC5OC(CO)C(O)C(O)C5O)COC5OC(CO)C(O)C(O)C5O)nn4)cc3)cc(-c3ccccc3)c2N=C2C(c3ccccc3)=CC(c3ccc(OCc4cn(C(COC5OC(CO)C(O)C(O)C5O)COC5OC(CO)C(O)C(O)C5O)nn4)cc3)=[N+]21 (centres unmarked) [mvGlu-AB2]	11 fold	0.629	0.505	0.475	–
COc1ccc(C2=[N+]3C(=Nc4c(-c5ccccc5)cc(-c5ccc(OC)cc5)n4[B-]3(F)F)C(c3ccccc3)=C2)cc1 [AB-OMe2, reference compound]	–	–	–	–	barely above background
